# Values joined by “and” are separate entries in the source; they are usually repeats but may differ in a detail not shown here. Identical values can stand only once. At least one structure is not confirmed: it was looked up by name or label, or the drawing left a doubt.
# Key:
# [1] = tested on: monocyte chemotactic protein (MCP-1); experiment: Cytokine levels in vascular tissue after delivery from a stent (FIG. 75); type: in vivo; details: delivered from a stent
# [2] = Drug concentration in liquid formulations by liquid chromatography / HPLC; type: physicochemical; details: for Sirolimus conc.: EtOH 2.0 %, H2O 25 %, PEG 200 75 %, liquid chromatography
# Method: Table 8, shown below, summarizes the concentrations of the excipient, the co-solvents and the drug for four different liquid formulations in accordance with exemplary embodiments of the present invention.
# In another exemplary embodiment, the liquid formulation of sirolimus comprises water and ethanol as co-solvents and Vitamin E TPGS as the excipient. The liquid formulation was created utilizing the following process. Two hundred milligrams of sirolimus and two grams of ethanol were added to a pre-weighed twenty milliliter scintillation vial. The vial was vortexed and sonicated until the sirolimus was completely dissolved. Approximately six hundred milligrams of Vitamin E TPGS was then added to the solution of ethanol and sirolimus. The vial was vortexed again until a clear yellowish solution was obtained. Nitrogen gas was then used to reduce the amount of ethanol in the vial to approximately two hundred twenty-nine milligrams. In a separate vial, three hundred milligrams of Vitamin E TPGS was dissolved in eleven milliliters of purified water while undergoing vortexing. The Vitamin E TPGS and water solution was then added to the first vial containing the sirolimus, Vitamin E TPGS and ethanol. The first vial was then vortexed vigorously and continuously for three minutes. […] The foam gradually disappeared after sitting at room temperature.
# In another exemplary embodiment, a liquid formulation of CCI-779, a sirolimus analog, is prepared utilizing ethanol, Vitamin E TPGS and water. This liquid formulation was made under similar conditions as to that described above. Because of its better solubility in ethanol, only 0.8 grams of ethanol was used to dissolve two hundred milligrams of CCI-779 as opposed to the two grams of sirolimus. After the amount of ethanol was reduced to approximately two hundred thirty milligrams, eleven milliliters of purified water containing three hundred milligrams of Vitamin E TPGS was added to the vial of ethanol and CCI-779. […] The concentration of ethanol in the final solution was less than two percent. Accordingly, the results are substantially identical to that achieved for the sirolimus.
# [3] = tested on: neointimal hyperplasia in stented porcine arteries; experiment: Animal studies with rapamycin-coated stents, porcine; type: in vivo; details: porcine and rabbit models; release from nonerodible polymeric stent coating, 35-430 ug; maximal at about 28-30 days
smiles,measurement,setting,value
"CO[C@H]1C[C@@H]2CC[C@@H](C)[C@@](O)(O2)C(=O)C(=O)N2CCCC[C@H]2C(=O)O[C@H]([C@H](C)C[C@@H]2CC[C@@H](O)[C@H](OC)C2)CC(=O)[C@H](C)/C=C(\C)[C@@H](O)[C@@H](OC)C(=O)[C@H](C)C[C@H](C)/C=C/C=C/C=C/1C [Rapamycin, rapamycin]",reduction of monocyte chemotactic protein (MCP-1) levels in the vascular wall,[1],highly effective in reducing
same,dilution with water at which sirolimus starts to precipitate out of solution,[2]; 4 mg/ml formulation with PEG 200,five to ten
same,Sirolimus conc.,[2]; listed as Sirolimus,2.0 mg/mL and 4 mg/mL
same,Sirolimus conc.,[2]; listed as sirolimus,4 mg/mL
same,concentration in the final solution (HPLC assay),"[2]; ethanol (less than two percent), Vitamin E TPGS and water",15000 µg/mL
same,peak reduction in neointimal hyperplasia,[3],fifty to fifty-five
